# Measurements published in paper PMC6155126.
# By UniProt entry, the sequences of proteins in these tests, tags left out.
# UniProt Q9H9Q4: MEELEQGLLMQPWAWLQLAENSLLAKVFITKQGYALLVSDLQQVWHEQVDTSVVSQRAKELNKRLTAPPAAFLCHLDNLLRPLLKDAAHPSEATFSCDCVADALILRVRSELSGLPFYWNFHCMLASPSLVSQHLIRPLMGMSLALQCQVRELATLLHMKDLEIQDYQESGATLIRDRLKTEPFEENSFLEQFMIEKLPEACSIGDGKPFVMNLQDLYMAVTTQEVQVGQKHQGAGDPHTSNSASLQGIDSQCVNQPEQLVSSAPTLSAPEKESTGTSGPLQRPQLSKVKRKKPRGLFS
# UniProt Q9BUH6: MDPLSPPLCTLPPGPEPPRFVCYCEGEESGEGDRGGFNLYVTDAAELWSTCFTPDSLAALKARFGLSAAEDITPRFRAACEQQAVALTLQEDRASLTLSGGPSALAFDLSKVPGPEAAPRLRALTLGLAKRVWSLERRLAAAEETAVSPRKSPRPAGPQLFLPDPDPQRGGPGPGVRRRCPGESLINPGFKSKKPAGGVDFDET
# UniProt Q13426: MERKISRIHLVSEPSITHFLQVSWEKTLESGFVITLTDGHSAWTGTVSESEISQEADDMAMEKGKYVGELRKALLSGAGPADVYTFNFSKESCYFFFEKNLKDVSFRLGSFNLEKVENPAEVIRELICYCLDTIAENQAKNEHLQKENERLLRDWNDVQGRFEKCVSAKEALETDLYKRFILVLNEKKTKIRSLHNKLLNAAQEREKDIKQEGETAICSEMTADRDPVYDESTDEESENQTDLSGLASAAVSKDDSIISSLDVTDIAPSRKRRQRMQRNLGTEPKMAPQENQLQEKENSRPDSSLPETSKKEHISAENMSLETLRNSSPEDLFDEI
# B1: dynamin 1 (protein, UniProt Q05193 1-864)
# chain: MGNRGMEDLIPLVNRLQDAFSAIGQNADLDLPQIAVVGGQSAGKSSVLENFVGRDFLPRGSGIVTRRPLVLQLVNATTEYAEFLHCKGKKFTDFEEVRLEIEAETDRVTGTNKGISPVPINLRVYSPHVLNLTLVDLPGMTKVPVGDQPPDIEFQIRDMLMQFVTKENCLILAVSPANSDLANSDALKVAKEVDPQGQRTIGVITKLDLMDEGTDARDVLENKLLPLRRGYIGVVNRSQKDIDGKKDITAALAAERKFFLSHPSYRHLADRMGTPYLQKVLNQQLTNHIRDTLPGLRNKLQSQLLSIEKEVEEYKNFRPDDPARKTKALLQMVQQFAVDFEKRIEGSGDQIDTYELSGGARINRIFHERFPFELVKMEFDEKELRREISYAIKNIHGIRTGLFTPDMAFETIVKKQVKKIREPCLKCVDMVISELISTVRQCTKKLQQYPRLREEMERIVTTHIREREGRTKEQVMLLIDIELAYMNTNHEDFIGFANAQQRSNQMNKKKTSGNQDEILVIRKGWLTINNIGIMKGGSKEYWFVLTAENLSWYKDDEEKEKKYMLSVDNLKLRDVEKGFMSSKHIFALFNTEQRNVYKDYRQLELACETQEEVDSWKASFLRAGVYPERVGDKEKASETEENGSDSFMHSMDPQLERQVETIRNLVDSYMAIVNKTVRDLMPKTIMHLMINNTKEFIFSELLANLYSCGDQNTLMEESAEQAQRRDEMLRMYHALKEALSIIGDINTTTVSTPMPPPVDDSWLQVQSVPAGRRSPTSSPTPQRRAPAVPPARPGSRGPAPGPPPAGSALGGAPPVPSRPGASPDPFGPPPQVPSRPNRAPPGVPSRSGQASPSRPESPRPPFDL
# B2: dynamin 3 (protein, UniProt Q9UQ16 1-869)
# chain: MGNREMEELIPLVNRLQDAFSALGQSCLLELPQIAVVGGQSAGKSSVLENFVGRDFLPRGSGIVTRRPLVLQLVTSKAEYAEFLHCKGKKFTDFDEVRLEIEAETDRVTGMNKGISSIPINLRVYSPHVLNLTLIDLPGITKVPVGDQPPDIEYQIREMIMQFITRENCLILAVTPANTDLANSDALKLAKEVDPQGLRTIGVITKLDLMDEGTDARDVLENKLLPLRRGYVGVVNRSQKDIDGKKDIKAAMLAERKFFLSHPAYRHIADRMGTPHLQKVLNQQLTNHIRDTLPNFRNKLQGQLLSIEHEVEAYKNFKPEDPTRKTKALLQMVQQFAVDFEKRIEGSGDQVDTLELSGGAKINRIFHERFPFEIVKMEFNEKELRREISYAIKNIHGIRTGLFTPDMAFEAIVKKQIVKLKGPSLKSVDLVIQELINTVKKCTKKLANFPRLCEETERIVANHIREREGKTKDQVLLLIDIQVSYINTNHEDFIGFANAQQRSSQVHKKTTVGNQGTNLPPSRQIVIRKGWLTISNIGIMKGGSKGYWFVLTAESLSWYKDDEEKEKKYMLPLDNLKVRDVEKSFMSSKHIFALFNTEQRNVYKDYRFLELACDSQEDVDSWKASLLRAGVYPDKSVAENDENGQAENFSMDPQLERQVETIRNLVDSYMSIINKCIRDLIPKTIMHLMINNVKDFINSELLAQLYSSEDQNTLMEESAEQAQRRDEMLRMYQALKEALGIIGDISTATVSTPAPPPVDDSWIQHSRRSPPPSPTTQRRPTLSAPLARPTSGRGPAPAIPSPGPHSGAPPVPFRPGPLPPFPSSSDSFGAPPQVPSRPTRAPPSVPSRRPPPSPTRPTIIRPLESSLLD
# B3: TERF2IP/RAP1 (protein, UniProt Q9NYB0 1-399)
# chain: MAEAMDLGKDPNGPTHSSTLFVRDDGSSMSFYVRPSPAKRRLSTLILHGGGTVCRVQEPGAVLLAQPGEALAEASGDFISTQYILDCVERNERLELEAYRLGPASAADTGSEAKPGALAEGAAEPEPQRHAGRIAFTDADDVAILTYVKENARSPSSVTGNALWKAMEKSSLTQHSWQSLKDRYLKHLRGQEHKYLLGDAPVSPSSQKLKRKAEEDPEAADSGEPQNKRTPDLPEEEYVKEEIQENEEAVKKMLVEATREFEEVVVDESPPDFEIHITMCDDDPPTPEEDSETQPDEEEEEEEEKVSQPEVGAAIKIIRQLMEKFNLDLSTVTQAFLKNSGELEATSAFLASGQRADGYPIWSRQDDIDLQKDDEDTREALVKKFGAQNVARRIEFRKK
# Molecular target: FLAG-XLF (human) (UniProt Q9H9Q4)
# Test: affinity purification with mass spectrometry; anti-FLAG IP of FLAG-PAXX, -XLF, -XRCC4, -DNA-PKcs (stable) or FLAG-Pol λ (transient) from nucleoplasmic and benzonase-treated soluble chromatin fractions of HEK293F cells; FLAG peptide elution; LC-MS/MS
row,Binder,binding
1,B1,binds
2,B2,binds
3,B3,binds

# Molecular target: FLAG-DNA-PKcs (UniProt P78527)
# Test: as above
row,Binder,binding
1,B1,binds
2,B2,binds
3,B3,binds

# Molecular target: FLAG-PAXX (human) (UniProt Q9BUH6)
# Test: as above
row,Binder,binding
1,B1,binds
2,B2,binds
3,B3,binds

# Molecular target: FLAG-XRCC4 (human) (UniProt Q13426)
# Test: as above
row,Binder,binding
1,B1,no binding
2,B2,no binding
3,B3,no binding

# Results are given in words; binding and its absence hold for the method and conditions named. Binding seen in cells or lysates may run through a third protein. These calls come from enrichment with a bait or labelling near it, and not all partners need be listed. For part of these data: No binding means not detected with the bait.
